According to article PMC6110521:
No constants are given. Whether binding was seen depends on the method and setting. In cells and extracts the contact can be indirect. Some entries that bind do so weakly or less than the wild type. Where a sequence is shown, tags or fusion partners need not be part of it.

By UniProt entry, the sequences of proteins in these tests, tags left out.
UniProt Q13547: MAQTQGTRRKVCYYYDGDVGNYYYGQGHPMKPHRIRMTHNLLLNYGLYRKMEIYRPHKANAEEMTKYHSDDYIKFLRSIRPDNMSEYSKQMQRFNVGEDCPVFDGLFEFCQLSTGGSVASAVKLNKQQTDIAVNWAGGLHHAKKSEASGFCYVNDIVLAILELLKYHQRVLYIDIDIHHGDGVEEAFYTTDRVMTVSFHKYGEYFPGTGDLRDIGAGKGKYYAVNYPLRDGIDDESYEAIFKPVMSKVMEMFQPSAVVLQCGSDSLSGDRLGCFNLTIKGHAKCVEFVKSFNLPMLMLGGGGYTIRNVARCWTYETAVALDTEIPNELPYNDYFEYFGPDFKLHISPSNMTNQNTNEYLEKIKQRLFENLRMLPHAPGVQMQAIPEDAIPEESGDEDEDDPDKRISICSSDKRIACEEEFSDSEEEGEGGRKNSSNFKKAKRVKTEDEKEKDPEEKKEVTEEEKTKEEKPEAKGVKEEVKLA
UniProt O09106: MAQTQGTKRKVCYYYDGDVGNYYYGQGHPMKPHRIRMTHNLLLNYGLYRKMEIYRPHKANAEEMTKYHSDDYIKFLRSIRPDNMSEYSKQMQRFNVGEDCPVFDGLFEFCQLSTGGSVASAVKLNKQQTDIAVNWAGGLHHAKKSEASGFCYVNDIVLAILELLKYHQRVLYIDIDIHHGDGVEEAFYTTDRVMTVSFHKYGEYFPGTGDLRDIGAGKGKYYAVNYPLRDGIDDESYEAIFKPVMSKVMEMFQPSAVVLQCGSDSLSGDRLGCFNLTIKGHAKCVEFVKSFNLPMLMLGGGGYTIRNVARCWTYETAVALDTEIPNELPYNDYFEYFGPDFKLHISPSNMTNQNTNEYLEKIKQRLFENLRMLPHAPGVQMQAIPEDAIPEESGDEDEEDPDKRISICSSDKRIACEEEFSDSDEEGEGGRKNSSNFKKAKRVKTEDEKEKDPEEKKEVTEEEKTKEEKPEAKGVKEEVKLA

T1: flag-tagged SMYD4 (SMYD4^flag), wild-type human, overexpressed in HL-1 cells (human) (UniProt Q8IYR2)
T1 sequence: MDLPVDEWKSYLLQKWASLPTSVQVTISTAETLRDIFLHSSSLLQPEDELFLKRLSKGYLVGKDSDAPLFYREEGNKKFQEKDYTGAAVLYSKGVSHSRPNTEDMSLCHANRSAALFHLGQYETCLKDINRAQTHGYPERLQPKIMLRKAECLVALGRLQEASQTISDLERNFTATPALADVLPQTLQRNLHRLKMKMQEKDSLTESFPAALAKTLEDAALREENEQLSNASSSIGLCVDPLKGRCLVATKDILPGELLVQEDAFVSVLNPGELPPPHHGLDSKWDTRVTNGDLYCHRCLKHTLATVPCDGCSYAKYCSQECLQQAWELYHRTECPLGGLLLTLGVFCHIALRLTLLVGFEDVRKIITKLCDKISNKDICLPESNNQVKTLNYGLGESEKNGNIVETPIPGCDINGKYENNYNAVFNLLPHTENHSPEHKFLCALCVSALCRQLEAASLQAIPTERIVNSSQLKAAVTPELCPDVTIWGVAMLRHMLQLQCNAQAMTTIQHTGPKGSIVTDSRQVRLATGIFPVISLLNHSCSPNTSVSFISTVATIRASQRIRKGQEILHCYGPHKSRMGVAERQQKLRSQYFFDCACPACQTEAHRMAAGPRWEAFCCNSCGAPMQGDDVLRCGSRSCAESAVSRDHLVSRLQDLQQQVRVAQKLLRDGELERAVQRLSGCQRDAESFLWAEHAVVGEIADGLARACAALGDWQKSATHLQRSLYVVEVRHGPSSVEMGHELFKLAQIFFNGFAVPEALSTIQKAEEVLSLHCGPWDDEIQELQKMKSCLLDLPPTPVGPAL

B1: flag-tagged SMYD4 (SMYD4^flag), wild-type human, overexpressed in HEK293T cells (enzyme, UniProt Q8IYR2 1-804)
chain: T1 sequence

Columns and labels:
[1] = target: T1, flag-tagged SMYD4 (SMYD4^flag), wild-type human, overexpressed in HL-1 cells (human); assay: co-IP; SMYD4^flag (wild type or G345D) overexpressed in HL-1 cells; cell extracts immunoprecipitated with anti-FLAG affinity gel, western blotting
[2] = target: HA-tagged HDAC1 (HDAC1^HA), overexpressed in HEK293T cells (UniProt Q13547); assay: co-IP; SMYD4^flag and HDAC1^HA co-overexpressed in HEK293T cells; co-immunoprecipitation with anti-tag antibodies, western blotting

Row | Molecule | binding [1] | binding [2]
1 | histone deacetylase 1 (HDAC1), in HL-1 cells (from UniProt O09106 1-482) (enzyme) | binds | 
2 | B1 |  | binds
